In publication PMC10618106:
No constants are given. Whether binding was seen depends on the method and setting. In cells and extracts the contact can be indirect. Some binding calls cover weakened binding; strength is not graded here. Tags and fused reporters may be left off the sequences shown.

Amino acid sequences for entries named in this document (tags omitted).
UniProt P68400: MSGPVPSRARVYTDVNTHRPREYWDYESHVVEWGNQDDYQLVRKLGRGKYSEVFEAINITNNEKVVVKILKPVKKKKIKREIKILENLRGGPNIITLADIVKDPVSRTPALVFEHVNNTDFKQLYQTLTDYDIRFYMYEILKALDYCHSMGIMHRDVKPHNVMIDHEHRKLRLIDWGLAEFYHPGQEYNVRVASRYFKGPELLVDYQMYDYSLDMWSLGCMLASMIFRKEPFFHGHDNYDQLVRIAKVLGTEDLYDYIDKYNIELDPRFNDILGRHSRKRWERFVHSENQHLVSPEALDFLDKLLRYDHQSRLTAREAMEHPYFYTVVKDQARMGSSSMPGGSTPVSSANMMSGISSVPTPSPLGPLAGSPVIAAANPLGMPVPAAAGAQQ
UniProt O00571: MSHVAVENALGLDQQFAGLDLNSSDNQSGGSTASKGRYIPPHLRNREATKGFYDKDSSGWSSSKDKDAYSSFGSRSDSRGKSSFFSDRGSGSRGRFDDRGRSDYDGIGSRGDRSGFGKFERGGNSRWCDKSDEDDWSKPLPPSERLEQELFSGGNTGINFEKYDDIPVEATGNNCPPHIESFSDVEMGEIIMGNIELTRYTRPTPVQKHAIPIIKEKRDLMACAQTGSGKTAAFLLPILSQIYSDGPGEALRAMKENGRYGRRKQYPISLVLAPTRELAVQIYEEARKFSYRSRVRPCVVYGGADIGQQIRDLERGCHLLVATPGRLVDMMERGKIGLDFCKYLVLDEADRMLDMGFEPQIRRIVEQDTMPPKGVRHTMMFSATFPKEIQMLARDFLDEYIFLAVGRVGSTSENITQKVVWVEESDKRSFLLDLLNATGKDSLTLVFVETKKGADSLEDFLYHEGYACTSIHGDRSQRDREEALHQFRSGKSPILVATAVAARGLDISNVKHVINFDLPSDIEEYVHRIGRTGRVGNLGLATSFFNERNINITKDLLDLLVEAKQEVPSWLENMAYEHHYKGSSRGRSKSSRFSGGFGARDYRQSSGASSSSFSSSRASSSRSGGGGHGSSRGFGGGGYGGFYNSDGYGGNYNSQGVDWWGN
UniProt P60842: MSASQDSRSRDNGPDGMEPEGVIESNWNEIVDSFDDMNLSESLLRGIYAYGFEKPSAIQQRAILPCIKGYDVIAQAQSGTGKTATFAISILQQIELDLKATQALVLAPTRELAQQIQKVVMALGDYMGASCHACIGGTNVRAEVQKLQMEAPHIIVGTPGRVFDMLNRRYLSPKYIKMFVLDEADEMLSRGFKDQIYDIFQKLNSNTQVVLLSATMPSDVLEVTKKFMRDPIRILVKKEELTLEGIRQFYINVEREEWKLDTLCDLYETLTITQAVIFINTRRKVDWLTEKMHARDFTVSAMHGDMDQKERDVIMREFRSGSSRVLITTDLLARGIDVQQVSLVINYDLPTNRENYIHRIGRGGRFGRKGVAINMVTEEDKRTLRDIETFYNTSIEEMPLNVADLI
UniProt Q9NYV6: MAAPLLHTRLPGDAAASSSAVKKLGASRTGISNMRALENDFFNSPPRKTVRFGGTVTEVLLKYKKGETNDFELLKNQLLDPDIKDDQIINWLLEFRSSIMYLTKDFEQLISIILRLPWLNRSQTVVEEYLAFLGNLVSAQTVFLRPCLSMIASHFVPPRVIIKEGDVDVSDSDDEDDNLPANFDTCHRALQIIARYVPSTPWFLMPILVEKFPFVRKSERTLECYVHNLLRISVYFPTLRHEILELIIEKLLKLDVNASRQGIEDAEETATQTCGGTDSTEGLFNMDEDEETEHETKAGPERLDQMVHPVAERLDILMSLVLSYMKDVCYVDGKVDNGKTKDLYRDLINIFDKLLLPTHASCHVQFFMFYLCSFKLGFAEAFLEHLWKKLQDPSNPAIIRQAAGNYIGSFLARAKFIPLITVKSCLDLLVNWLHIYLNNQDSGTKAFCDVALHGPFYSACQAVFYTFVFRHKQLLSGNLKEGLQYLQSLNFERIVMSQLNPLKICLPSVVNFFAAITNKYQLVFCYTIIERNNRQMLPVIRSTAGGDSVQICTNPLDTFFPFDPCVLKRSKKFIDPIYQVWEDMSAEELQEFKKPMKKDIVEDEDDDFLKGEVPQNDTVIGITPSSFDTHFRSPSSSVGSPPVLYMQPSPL
UniProt P08047: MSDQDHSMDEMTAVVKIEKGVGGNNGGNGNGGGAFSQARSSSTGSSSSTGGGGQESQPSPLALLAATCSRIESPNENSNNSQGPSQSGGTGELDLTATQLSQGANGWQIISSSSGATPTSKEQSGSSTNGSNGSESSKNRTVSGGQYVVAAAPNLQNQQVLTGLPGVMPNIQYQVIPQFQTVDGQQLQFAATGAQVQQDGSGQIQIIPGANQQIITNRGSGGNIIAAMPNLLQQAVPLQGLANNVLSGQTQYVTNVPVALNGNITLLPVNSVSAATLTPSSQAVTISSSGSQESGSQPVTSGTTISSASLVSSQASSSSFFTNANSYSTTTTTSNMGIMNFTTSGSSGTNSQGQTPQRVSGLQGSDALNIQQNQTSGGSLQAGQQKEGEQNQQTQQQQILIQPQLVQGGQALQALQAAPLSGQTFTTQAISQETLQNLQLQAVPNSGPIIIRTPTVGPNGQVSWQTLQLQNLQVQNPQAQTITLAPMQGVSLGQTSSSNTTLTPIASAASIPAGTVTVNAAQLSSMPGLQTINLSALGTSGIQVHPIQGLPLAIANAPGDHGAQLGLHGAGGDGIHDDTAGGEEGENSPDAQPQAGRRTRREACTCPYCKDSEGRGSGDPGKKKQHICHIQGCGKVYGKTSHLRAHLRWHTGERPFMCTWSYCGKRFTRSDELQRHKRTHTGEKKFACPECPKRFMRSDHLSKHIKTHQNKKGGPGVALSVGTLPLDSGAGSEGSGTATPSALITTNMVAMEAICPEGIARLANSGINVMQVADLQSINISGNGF

The molecules below were run against CK2α (endogenous, HEK293 cells) (human (endogenous in HEK293)) (UniProt P68400) (assay: co-IP; immunoprecipitation with monoclonal anti-CK2 antibody 6A from the cytosolic or nuclear fraction of HEK293 cells expressing a FLAG-tagged pCDNA3 construct, synchronously progressed to late G1; Western blot).

| binding | Molecule |
| --- | --- |
| binds | FLAG-tagged DDX3X (from UniProt O00571 1-662) |
| binds | FLAG-tagged EIF4A1 (from UniProt P60842 1-406) |
| binds | FLAG-tagged RRN3/TIF-1A (from UniProt Q9NYV6 1-651) |
| binds | FLAG-tagged SP1 (from UniProt P08047 1-785) |
| binds | FLAG-tagged TAF1A (protein, UniProt Q15573 1-450) MSDFSEELKGPVTDDEEVETSVLSGAGMHFPWLQTYVETVAIGGKRRKDFAQTTSACLSFIQEALLKHQWQQAAEYMYSYFQTLEDSDSYKRQAAPEIIWKLGSEILFYHPKSNMESFNTFANRMKNIGVMNYLKISLQHALYLLHHGMLKDAKRNLSEAETWRHGENTSSREILINLIQAYKGLLQYYTWSEKKMELSKLDKDDYAYNAVAQDVFNHSWKTSANISALIKIPGVWDPFVKSYVEMLEFYGDRDGAQEVLTNYAYDEKFPSNPNAHIYLYNFLKRQKAPRSKLISVLKILYQIVPSHKLMLEFHTLLRKSEKEEHRKLGLEVLFGVLDFAGCTKNITAWKYLAKYLKNILMGNHLAWVQEEWNSRKNWWPGFHFSYFWAKSDWKEDTALACEKAFVAGLLLGKGCRYFRYILKQDHQILGKKIKRMKRSVKKYSIVNPRL |
| binds | FLAG-tagged DDX21 (protein, UniProt Q9NR30 1-783) MPGKLRSDAGLESDTAMKKGETLRKQTEEKEKKEKPKSDKTEEIAEEEETVFPKAKQVKKKAEPSEVDMNSPKSKKAKKKEEPSQNDISPKTKSLRKKKEPIEKKVVSSKTKKVTKNEEPSEEEIDAPKPKKMKKEKEMNGETREKSPKLKNGFPHPEPDCNPSEAASEESNSEIEQEIPVEQKEGAFSNFPISEETIKLLKGRGVTFLFPIQAKTFHHVYSGKDLIAQARTGTGKTFSFAIPLIEKLHGELQDRKRGRAPQVLVLAPTRELANQVSKDFSDITKKLSVACFYGGTPYGGQFERMRNGIDILVGTPGRIKDHIQNGKLDLTKLKHVVLDEVDQMLDMGFADQVEEILSVAYKKDSEDNPQTLLFSATCPHWVFNVAKKYMKSTYEQVDLIGKKTQKTAITVEHLAIKCHWTQRAAVIGDVIRVYSGHQGRTIIFCETKKEAQELSQNSAIKQDAQSLHGDIPQKQREITLKGFRNGSFGVLVATNVAARGLDIPEVDLVIQSSPPKDVESYIHRSGRTGRAGRTGVCICFYQHKEEYQLVQVEQKAGIKFKRIGVPSATEIIKASSKDAIRLLDSVPPTAISHFKQSAEKLIEEKGAVEALAAALAHISGATSVDQRSLINSNVGFVTMILQCSIEMPNISYAWKELKEQLGEEIDSKVKGMVFLKGKLGVCFDVPTASVTEIQEKWHDSRRWQLSVATEQPELEGPREGYGGFRGQREGSRGFRGQRDGNRRFRGQREGSRGPRGQRSGGGNKSNRSQNKGQKRSFSKAFGQ |
| binds | FLAG-tagged NOLC1 (protein, UniProt Q14978 1-699) MADAGIRRVVPSDLYPLVLGFLRDNQLSEVANKFAKATGATQQDANASSLLDIYSFWLKSAKVPERKLQANGPVAKKAKKKASSSDSEDSSEEEEEVQGPPAKKAAVPAKRVGLPPGKAAAKASESSSSEESSDDDDEEDQKKQPVQKGVKPQAKAAKAPPKKAKSSDSDSDSSSEDEPPKNQKPKITPVTVKAQTKAPPKPARAAPKIANGKAASSSSSSSSSSSSDDSEEEKAAATPKKTVPKKQVVAKAPVKAATTPTRKSSSSEDSSSDEEEEQKKPMKNKPGPYSSVPPPSAPPPKKSLGTQPPKKAVEKQQPVESSEDSSDESDSSSEEEKKPPTKAVVSKATTKPPPAKKAAESSSDSSDSDSSEDDEAPSKPAGTTKNSSNKPAVTTKSPAVKPAAAPKQPVGGGQKLLTRKADSSSSEEESSSSEEEKTKKMVATTKPKATAKAALSLPAKQAPQGSRDSSSDSDSSSSEEEEEKTSKSAVKKKPQKVAGGAAPSKPASAKKGKAESSNSSSSDDSSEEEEEKLKGKGSPRPQAPKANGTSALTAQNGKAAKNSEEEEEEKKKAAVVVSKSGSLKKRKQNEAAKEAETPQAKKIKLQTPNTFPKRKKGEKRASSPFRRVREEEIEVDSRVADNSFDAKRGAAGDWGERANQVLKFTKGKSFRHEKTKKKRGSYRGGSISVQVNSIKFDSE |
